Measured values: paper doi:10.1101/2024.12.20.629780v2 (bioRxiv, 2024)

Assay: Circular dichroism secondary structure
Format: physicochemical
Settings: CD, 50 µmol L-1 peptide, 25 °C, BeStSel

## WYLIRVALIAFKKA [Turingcin-21]
  α-helical structure fraction in water: 29.5%

## RRWVHKILLIIIKILA [Turingcin-1]
  α-helical structure fraction in water: 31.4%

## RLKSILLLIVTKINIRLKIA [Turingcin-7]
  α-helical structure fraction in water: 39%
